These are yes or no findings as the source states them, for the method shown. Some binding calls cover weakened binding; strength is not graded here.
Molecular target: human fibrillin-1 cbEGF41-43 fragment (residues D2567-V2687), biotinylated, C-terminal BirA tag (human) (UniProt P35555)
Test: pull-down; data not shown: pull-down with immobilised cbEGF41-43 of FUN-EGF3 alanine mutants that the legend of Figure 8D does not name; both purified

By UniProt entry, the sequences of proteins in these tests, tags left out. Where a name states a change or a piece, a line headed by the entry shows the natural chain unless it says otherwise. Chains listed by the source or under a name are the forms on record and can include a tag or linker. Residues count along the entry.
human fibrillin-1 cbEGF41-43 fragment (residues D2567-V2687), biotinylated, C-terminal BirA tag (P35555, residues 2567-2687): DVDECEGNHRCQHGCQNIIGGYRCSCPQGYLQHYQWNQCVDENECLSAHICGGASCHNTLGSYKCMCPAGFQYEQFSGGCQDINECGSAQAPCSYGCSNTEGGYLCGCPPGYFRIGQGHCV
FUN-EGF3 with N98 substituted with alanine (P35555, form named): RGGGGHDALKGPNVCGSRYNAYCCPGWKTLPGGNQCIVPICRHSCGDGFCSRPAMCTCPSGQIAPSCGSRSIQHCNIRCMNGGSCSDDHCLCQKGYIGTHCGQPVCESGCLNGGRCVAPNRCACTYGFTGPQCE
R159A FUN-EGF3 (P35555, form named): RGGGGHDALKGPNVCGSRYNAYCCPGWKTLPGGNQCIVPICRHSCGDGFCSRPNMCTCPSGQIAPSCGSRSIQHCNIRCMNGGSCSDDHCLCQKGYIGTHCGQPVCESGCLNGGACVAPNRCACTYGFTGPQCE
FUN-EGF3 with D131 substituted with alanine (P35555, form named): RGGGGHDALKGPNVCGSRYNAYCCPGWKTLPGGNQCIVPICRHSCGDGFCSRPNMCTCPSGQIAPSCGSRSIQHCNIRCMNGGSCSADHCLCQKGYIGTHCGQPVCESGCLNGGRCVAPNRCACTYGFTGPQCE

| binding | Substance |
| --- | --- |
| binds | FUN-EGF3 with N98 substituted with alanine (from UniProt P35555 45-178) (domain or fragment) |
| binds | R159A FUN-EGF3 (from UniProt P35555 45-178) (domain or fragment) |
| binds | FUN-EGF3 with D131 substituted with alanine (from UniProt P35555 45-178) (domain or fragment) |

— publication PMC3794157
